Data: doi:10.1101/2020.11.21.392902
These are yes or no findings as the source states them, for the method shown. Binding seen in cells or lysates may run through a third protein. For some assays here: Binding can be weak; no strength is given.

Protein sequences, listed by entry. Tags and fused reporters are not part of them. Lines headed by an entry give the natural chain unless they say otherwise; changes in a name come on top.
UniProt Q8VIM5: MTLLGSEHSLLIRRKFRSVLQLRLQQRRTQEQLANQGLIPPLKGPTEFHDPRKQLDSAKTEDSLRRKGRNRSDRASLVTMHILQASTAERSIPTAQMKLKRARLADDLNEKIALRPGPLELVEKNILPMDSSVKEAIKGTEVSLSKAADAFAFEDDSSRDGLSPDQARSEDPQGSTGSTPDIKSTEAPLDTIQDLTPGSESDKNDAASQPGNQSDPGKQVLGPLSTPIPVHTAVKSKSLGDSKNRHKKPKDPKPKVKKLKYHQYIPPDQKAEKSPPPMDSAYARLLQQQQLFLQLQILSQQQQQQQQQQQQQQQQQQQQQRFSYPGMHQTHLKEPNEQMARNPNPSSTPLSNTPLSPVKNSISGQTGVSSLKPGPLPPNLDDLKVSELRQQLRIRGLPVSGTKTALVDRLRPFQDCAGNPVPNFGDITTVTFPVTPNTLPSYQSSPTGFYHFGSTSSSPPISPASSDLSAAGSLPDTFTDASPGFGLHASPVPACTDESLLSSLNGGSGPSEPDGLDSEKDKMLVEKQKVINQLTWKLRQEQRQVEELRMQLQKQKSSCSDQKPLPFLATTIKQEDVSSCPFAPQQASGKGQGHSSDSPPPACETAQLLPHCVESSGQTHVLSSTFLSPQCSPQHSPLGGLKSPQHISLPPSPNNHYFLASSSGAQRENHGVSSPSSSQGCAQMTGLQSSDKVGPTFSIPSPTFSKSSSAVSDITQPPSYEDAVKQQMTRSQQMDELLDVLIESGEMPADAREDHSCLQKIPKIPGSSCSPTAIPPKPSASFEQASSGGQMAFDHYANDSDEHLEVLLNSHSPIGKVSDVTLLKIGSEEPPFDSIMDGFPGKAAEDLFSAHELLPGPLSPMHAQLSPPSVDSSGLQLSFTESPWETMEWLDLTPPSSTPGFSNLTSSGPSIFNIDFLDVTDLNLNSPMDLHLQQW
UniProt P40763: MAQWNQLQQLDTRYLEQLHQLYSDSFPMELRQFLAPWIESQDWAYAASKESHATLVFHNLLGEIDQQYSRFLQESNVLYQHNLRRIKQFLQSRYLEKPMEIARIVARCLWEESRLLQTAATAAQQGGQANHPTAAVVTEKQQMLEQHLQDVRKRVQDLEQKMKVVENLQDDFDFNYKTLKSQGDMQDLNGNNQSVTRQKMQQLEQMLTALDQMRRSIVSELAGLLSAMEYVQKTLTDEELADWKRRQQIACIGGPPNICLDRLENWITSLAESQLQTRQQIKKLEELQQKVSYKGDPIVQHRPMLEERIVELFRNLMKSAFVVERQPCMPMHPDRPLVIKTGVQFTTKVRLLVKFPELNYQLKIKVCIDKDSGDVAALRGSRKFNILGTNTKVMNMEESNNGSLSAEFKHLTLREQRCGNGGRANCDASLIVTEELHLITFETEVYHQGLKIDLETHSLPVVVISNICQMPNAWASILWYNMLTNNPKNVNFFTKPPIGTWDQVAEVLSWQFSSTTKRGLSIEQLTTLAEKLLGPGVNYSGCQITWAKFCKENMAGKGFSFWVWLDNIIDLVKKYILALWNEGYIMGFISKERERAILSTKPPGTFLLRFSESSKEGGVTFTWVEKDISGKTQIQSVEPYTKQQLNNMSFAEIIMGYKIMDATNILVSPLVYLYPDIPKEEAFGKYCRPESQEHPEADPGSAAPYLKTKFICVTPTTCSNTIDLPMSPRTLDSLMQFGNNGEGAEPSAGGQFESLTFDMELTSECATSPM

Tests used:
[1] = target: Flag-tagged Myocardin mutant of the Q-rich domain [Myocardin (1-807)] (UniProt Q8VIM5); assay: co-IP
[2] = target: Flag-tagged Myocardin deletion mutant of the basic domain [Myocardin (1-807)] (UniProt Q8VIM5); assay: co-IP

binding [1]: binds | binding [2]: no binding
Substance: Myc-STAT3 (full-length STAT3 with Myc tag, Myc-pCDNA3.1-STAT3) (from UniProt P40763 1-770)
